Library screening results

Sequences of proteins named here, by UniProt entry; tags and fusion partners are left off.
UniProt E9BF75, entry or part of it: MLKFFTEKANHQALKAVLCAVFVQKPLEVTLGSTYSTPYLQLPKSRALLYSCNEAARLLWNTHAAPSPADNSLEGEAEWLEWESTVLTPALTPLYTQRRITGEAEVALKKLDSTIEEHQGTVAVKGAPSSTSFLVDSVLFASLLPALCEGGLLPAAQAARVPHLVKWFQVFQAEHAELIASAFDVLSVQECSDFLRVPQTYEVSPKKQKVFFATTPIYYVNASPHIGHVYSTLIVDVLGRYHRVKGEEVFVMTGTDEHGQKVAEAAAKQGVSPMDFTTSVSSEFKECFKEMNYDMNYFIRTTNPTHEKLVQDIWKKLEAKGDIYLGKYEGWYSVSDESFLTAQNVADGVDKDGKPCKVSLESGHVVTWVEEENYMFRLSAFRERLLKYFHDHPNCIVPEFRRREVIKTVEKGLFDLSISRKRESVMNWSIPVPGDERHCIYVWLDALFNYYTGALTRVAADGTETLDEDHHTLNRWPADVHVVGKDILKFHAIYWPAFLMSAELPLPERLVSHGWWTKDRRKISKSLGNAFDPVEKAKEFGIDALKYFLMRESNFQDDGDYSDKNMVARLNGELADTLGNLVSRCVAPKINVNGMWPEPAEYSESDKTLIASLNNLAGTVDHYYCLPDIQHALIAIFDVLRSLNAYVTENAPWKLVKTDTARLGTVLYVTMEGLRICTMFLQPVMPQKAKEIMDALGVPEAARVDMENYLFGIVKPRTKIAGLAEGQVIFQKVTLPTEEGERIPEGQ

All values are in %. The controls that fix the scale are not given in the record; negative values are as filed. Compounds were drawn at random from those tested, without regard to their results. A dash means the value is not listed here; it may have been measured.

LdMetRS: 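Methionyl-tRNA synthetase (putative), Leishmania donovani (UniProt E9BF75). Primary screen of methionyl-tRNA synthetase; the read-out is not stated. The test concentration is not given. The values are filed as inhibition. Of about 68,000 compounds tested this way, about 24 (0.035%) reached 50% or more in at least one test.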
Mtb heat-shock: 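Assay on Mycobacterium tuberculosis, filed only as a heat shock assay from Cornell; the read-out is not stated. The concentration is filed as 10 mM, unlikely as a test dose, so the dose is not known. Higher reads as stronger inhibition (inferred: compounds with an IC50 in retests scored well above the rest). Size under these conditions: about 69,000 compounds, about 930 of them at 50% or above in at least one test.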

CN1CCC(CN(C)C(=O)c2cc(C3CCCN3C)ccn2)CC1 (stereo not shown) read LdMetRS: 16.83%; Mtb heat-shock: -5.245%. Cc1nnc(-c2ccc(C(=O)Nc3ccnc(N(C)C)n3)cc2)o1 gave LdMetRS: 10.31%; Mtb heat-shock: 4.626%. With CCN1CC2(CCCCN2C(=O)C2CCCCC2)CC1=O (stereo not shown) the screen gave LdMetRS: 9.783%; Mtb heat-shock: -1.239%. Result for O=C(Nc1cccc(-c2cscn2)c1)N1CCC2(CC1)CC(O)CO2 (stereo not shown) was LdMetRS: 13.94%; Mtb heat-shock: 8.779%. With Cn1ccnc1CN1CCCN(C(=O)c2cccc(CC#N)c2)CC1 the screen gave LdMetRS: 5.866%; Mtb heat-shock: -16.36%. Result for Cc1cc(C(=O)N2CC[C@H]3[C@@H]2CCC(=O)N3c2ccccc2)no1 was LdMetRS: 13.74%. For CC[C@@H](C)[C@H](NC(=O)Cn1ccc2c(Cl)cccc21)C(=O)O the result was LdMetRS: 19.09%; Mtb heat-shock: 5.807%.

[H][C@@]12C[C@H](C(=O)Nc3cccnc3)[C@@]([H])(CN(S(=O)(=O)N(C)C)C1)O2 read Mtb heat-shock: -8.62%. Result for COc1ccc(CCN2CCCC2Cn2nc(C)nc2C)cc1 (stereo not shown) was LdMetRS: 7.042%; Mtb heat-shock: 23.58%. CNC(=O)[C@@H]1CN(C(=O)CCOC)C[C@H]1c1ccnc(N2CCCC2)n1.Cl read Mtb heat-shock: -16.12%. Result for COCC(=O)N1CCCC(c2csc(NC(C)=O)n2)C1 (stereo not shown) was LdMetRS: 6.452%; Mtb heat-shock: -9.207%. With Cn1cc(CC(=O)N2CCCC(c3cc(C(F)(F)F)[nH]n3)C2)cn1 (stereo not shown) the screen gave LdMetRS: 9.322%; Mtb heat-shock: -22.7%. CCOCc1nc(CSc2ccncc2)n(C)n1 gave LdMetRS: 8.791%; Mtb heat-shock: -28.46%. With O=C1OC2(CCN(CC3CCCO3)CC2)CN1CCc1ccccc1 (stereo not shown) the screen gave LdMetRS: 15.41%; Mtb heat-shock: -162%.

Result for CCc1cnccc1C(=O)NC1CCN(C(=O)C2CCCCC2)CC1 was LdMetRS: 7.508%; Mtb heat-shock: -0.7613%. For CC(C)(C)CC(=O)N1C[C@H]2CCN[C@H]2C1 the result was LdMetRS: 14.29%. Result for O=C(O)C(F)(F)F.[H][C@@]12CCCO[C@]1([H])[C@H](Oc1ncccc1F)CN2S(=O)(=O)CCC was Mtb heat-shock: -14.35%. Cn1nc(C#N)c2c1CN(C(=O)c1ccsc1)CCC2 gave LdMetRS: 12.33%; Mtb heat-shock: -8.958%. For Cc1cc(NC(=O)Cn2ccc(-c3ccc4c(c3)OCO4)n2)n(C)n1 the result was LdMetRS: 11.29%; Mtb heat-shock: -9.421%. [H][C@@]12CN(Cc3ccsc3)C[C@]1([H])OCCN2Cc1cnn(C)c1 read Mtb heat-shock: -4.296%. Result for FC(F)(F)COCCN1CCCC(c2noc(C3CC3)n2)C1 (stereo not shown) was LdMetRS: 4.878%; Mtb heat-shock: -10.08%.

Result for CCNC(=O)NC1CN(Cc2ccccc2N(C)C)C[C@@H]1OC (stereo partly shown) was LdMetRS: 11.18%; Mtb heat-shock: -43.05%. Result for CC(=O)N1CCc2ncn(C)c2C1C(=O)N1CCCC1 (stereo not shown) was LdMetRS: 12.78%. Result for COc1ncccc1NC(=O)C1CC1 was LdMetRS: 11.45%; Mtb heat-shock: 11.03%. For Cn1c(C(N)=O)ccc1-c1ccccc1 the result was LdMetRS: 17.96%; Mtb heat-shock: -19.42%. Cc1cc(C)nc(NCCSc2cnn[nH]2)n1 read LdMetRS: 12.57%; Mtb heat-shock: 7.88%. Result for CCN(CC)CC1CN(Cc2cccc(C#N)c2)Cc2nccn2C1.O=C(O)C(F)(F)F.O=C(O)C(F)(F)F (stereo not shown) was Mtb heat-shock: -22.76%. O=C(NCC1(O)CCC1)c1c(O)cc(Cl)cc1Cl read LdMetRS: 14.92%; Mtb heat-shock: -4.889%.

Result for CN(C)C(=O)c1cnc2n1CCN(Cc1ccsc1)C2 was LdMetRS: 5.473%. With COCCN1CCC2(CC1)CC(NCc1cncn1C)c1ccccc12 (stereo not shown) the screen gave LdMetRS: 9.058%. For CCN1CCCC(O)(CNCc2ccccc2F)C1 (stereo not shown) the result was LdMetRS: 12.03%; Mtb heat-shock: -38.2%. [H][C@]12CCN(C(=O)c3cc(C)on3)CC[C@@]1([H])S(=O)(=O)N(CCOC)C2 read Mtb heat-shock: -7.734%. With O=C(NCCN1CCCCCC1)c1cccc(Cl)c1Cl the screen gave LdMetRS: 12.24%; Mtb heat-shock: -28.4%. Cc1nc(C)c(C(C)NCc2c(C)nn(CC(C)C)c2N(C)C)s1 (stereo not shown) read LdMetRS: 12.2%; Mtb heat-shock: -6.248%. For CCc1ccc(CC)c(NCc2cnc(N3CCOCC3)nc2)c1 the result was LdMetRS: 12.71%; Mtb heat-shock: -21.43%.

With CC(=O)Nc1nc(C(=O)NCc2ccc(N3CCCC3)nc2)cs1 the screen gave LdMetRS: 17.48%; Mtb heat-shock: -13.06%. COCCN1C[C@@H]2CN(c3cc(OC)ncn3)CCC[C@]2(C(=O)O)C1 gave LdMetRS: 1.418%.

3 of the entries, repeated:

| SMILES | LdMetRS | Mtb heat-shock |
|---|---|---|
| `COc1ncccc1NC(=O)C1CC1` | 11.45 | 11.03 |
| `O=C(O)C(F)(F)F.[H][C@@]12CCCO[C@]1([H])[C@H](Oc1ncccc1F)CN2S(=O)(=O)CCC` | - | -14.35 |
| `CCc1cnccc1C(=O)NC1CCN(C(=O)C2CCCCC2)CC1` | 7.508 | -0.7613 |

The values are deposited in ChEMBL (CHEMBL3988442, “University of Dundee, Small-Polar-MMV Screening Library” (2021)).